Test results: patent US11541120B2, “Phosphonium-based ionic drug conjugates” (Anthos Partners, LP, priority 2017, dated 2023)

Experiments:
Caco-2 cell permeability = details: human
[1] = Water solubility of PBICs; type: physicochemical
Experimental: The water solubilties and partition coefficients of the PBICs were measured and compared to the values of the therapeutic agent by itself. To determine the partition coefficient Log D7.4 data provided in Table 2, a solution of the compound or conjugate was prepared in aqueous phosphate buffered saline (PBS) at a concentration of 100 micromolar (μM). The PBS solution was shaken with octanol. Thus, in Table 2, Log D7.4=Log (concentration in octanol/concentration in aqueous phosphate buffered saline (PBS))=Log[(initial concentration in PBS−final concentration in PBS)/final concentration in PBS], as the concentration in octanol is derived from the loss of compound from the aqueous PBS layer.

## NS(=O)(=O)c1cc(C(=O)O)c(NCc2ccco2)cc1Cl [Furosemide, reference compound]
Caco-2 cell permeability
  Papp A→B: 0.155 ×10⁻⁶ cm/s
  Papp B→A: 9.95 ×10⁻⁶ cm/s

## COC1=C(OC)C(=O)C(CCCCCCCCCC[P+](c2ccccc2)(c2ccccc2)c2ccccc2)=C(C)C1=O.NS(=O)(=O)c1cc(C(=O)[O-])c(NCc2ccco2)cc1Cl [Furosemide-MitoQ, Furosemide-MitoQ conjugate]
[1]
  Water solubility, MitoQ Conjugate: Insoluble
